Assay results: publication PMC11166643
No constants are given. Whether binding was seen depends on the method and setting. In cells and extracts the contact can be indirect. A yes stands for co-enrichment or nearness to the bait. Other partners may have been found. For part of these data: Sequences can lack the tags named with a protein.

Sequences of proteins named here, by UniProt entry; tags and fusion partners are left off.
UniProt Q16665: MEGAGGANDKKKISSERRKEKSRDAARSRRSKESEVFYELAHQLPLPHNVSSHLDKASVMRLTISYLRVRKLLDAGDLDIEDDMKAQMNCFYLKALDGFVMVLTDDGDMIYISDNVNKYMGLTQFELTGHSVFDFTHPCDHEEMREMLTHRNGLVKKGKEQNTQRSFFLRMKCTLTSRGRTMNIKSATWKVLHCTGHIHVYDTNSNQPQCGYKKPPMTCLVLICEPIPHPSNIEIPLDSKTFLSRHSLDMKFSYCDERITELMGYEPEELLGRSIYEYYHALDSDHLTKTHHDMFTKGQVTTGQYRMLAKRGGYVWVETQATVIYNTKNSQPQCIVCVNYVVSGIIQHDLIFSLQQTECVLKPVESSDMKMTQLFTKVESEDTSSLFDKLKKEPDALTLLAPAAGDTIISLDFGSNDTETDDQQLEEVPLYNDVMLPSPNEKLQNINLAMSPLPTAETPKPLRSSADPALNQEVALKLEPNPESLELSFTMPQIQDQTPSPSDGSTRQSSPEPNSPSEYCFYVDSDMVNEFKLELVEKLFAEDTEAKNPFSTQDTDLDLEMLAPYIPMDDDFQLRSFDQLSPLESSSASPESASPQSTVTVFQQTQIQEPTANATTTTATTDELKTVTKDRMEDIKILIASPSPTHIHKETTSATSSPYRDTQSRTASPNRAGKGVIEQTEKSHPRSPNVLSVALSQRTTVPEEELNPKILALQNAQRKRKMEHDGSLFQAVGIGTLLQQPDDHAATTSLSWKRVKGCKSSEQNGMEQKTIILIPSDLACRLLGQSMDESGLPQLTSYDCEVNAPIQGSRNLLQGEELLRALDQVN
UniProt Q9NT62: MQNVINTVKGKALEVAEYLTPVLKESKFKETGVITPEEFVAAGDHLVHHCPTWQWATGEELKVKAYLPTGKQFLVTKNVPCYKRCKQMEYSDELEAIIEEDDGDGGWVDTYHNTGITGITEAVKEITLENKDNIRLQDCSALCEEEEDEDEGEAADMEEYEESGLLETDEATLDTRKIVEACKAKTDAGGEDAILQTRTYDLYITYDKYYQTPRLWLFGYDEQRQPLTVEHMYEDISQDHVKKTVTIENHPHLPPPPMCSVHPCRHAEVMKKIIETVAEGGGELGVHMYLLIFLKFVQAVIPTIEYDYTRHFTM
UniProt Q9UNE7: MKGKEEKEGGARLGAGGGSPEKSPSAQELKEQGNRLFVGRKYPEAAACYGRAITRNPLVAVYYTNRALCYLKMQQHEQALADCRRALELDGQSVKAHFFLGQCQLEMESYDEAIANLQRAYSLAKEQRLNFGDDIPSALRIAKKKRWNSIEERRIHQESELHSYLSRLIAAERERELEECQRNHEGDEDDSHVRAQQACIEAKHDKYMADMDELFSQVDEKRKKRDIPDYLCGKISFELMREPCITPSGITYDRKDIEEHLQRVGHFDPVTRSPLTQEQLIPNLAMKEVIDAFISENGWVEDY
UniProt Q96LR5: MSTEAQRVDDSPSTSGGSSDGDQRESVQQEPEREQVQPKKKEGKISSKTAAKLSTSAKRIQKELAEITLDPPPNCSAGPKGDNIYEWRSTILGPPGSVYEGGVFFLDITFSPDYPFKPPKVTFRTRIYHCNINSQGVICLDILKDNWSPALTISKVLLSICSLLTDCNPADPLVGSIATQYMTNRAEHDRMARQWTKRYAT

Experiments:
[1] = molecular target: T1, Myc-DAB2IP (full length: 1-1189) (UniProt Q5VWQ8); assay: affinity purification with mass spectrometry; immunoprecipitation and mass spectrometry from HEK293T with exogeneous Myc-DAB2IP or Flag-HIF-1α overexpression; Sequest, Uniprot-Homo database
T1 sequence: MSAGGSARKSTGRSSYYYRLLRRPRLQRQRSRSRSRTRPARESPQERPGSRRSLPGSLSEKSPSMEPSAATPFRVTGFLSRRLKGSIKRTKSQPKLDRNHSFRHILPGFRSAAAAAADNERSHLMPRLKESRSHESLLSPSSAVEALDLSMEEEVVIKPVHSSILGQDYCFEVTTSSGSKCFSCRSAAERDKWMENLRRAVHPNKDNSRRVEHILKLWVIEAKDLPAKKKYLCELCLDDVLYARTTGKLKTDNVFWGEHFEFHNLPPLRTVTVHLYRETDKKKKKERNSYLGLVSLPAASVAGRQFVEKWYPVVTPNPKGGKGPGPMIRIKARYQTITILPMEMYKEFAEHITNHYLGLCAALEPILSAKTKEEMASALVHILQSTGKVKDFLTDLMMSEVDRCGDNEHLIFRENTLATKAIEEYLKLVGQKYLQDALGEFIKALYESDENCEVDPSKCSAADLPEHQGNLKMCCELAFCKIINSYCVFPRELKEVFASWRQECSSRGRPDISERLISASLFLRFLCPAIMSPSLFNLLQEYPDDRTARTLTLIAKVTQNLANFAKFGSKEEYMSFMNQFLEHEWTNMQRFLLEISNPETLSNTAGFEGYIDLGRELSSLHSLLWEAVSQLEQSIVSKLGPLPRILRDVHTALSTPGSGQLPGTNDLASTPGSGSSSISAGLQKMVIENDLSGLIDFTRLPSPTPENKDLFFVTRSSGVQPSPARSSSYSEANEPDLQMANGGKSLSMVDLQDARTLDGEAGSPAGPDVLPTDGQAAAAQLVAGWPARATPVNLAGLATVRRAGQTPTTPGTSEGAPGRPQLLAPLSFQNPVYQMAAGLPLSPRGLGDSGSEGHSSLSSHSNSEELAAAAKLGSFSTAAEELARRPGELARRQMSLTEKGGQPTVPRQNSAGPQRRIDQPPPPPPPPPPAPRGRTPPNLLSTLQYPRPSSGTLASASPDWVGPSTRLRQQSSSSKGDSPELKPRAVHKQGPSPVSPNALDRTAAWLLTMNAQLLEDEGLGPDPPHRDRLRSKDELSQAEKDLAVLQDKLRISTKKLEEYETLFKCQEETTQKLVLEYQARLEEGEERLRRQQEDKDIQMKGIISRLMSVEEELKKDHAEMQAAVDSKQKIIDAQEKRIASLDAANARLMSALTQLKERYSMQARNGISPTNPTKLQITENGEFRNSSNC

[2] = molecular target: Flag-HIF-1α (UniProt Q16665); assay: as above

| Substance | binding [1] | binding [2] |
| --- | --- | --- |
| ATG3 (from UniProt Q9NT62 1-314) (enzyme) | binds | binds |
| STUB1 (endogenous, HEK293T) (from UniProt Q9UNE7 1-303) (enzyme) | binds | binds |
| UBE2E2 (from UniProt Q96LR5 1-201) (enzyme) | binds | binds |
